Data reported in article PMC5847313.
Results are given in words; binding and its absence hold for the method and conditions named. For some of these results: Binding seen in cells or lysates may run through a third protein. Some results given as binding are weak or reduced against the parent protein; the word gives no strength.

Protein sequences, listed by entry. Tags and fused reporters are not part of them. Lines headed by an entry give the natural chain unless they say otherwise; changes in a name come on top. Residues count along the entry.
UniProt P62136, residues 7-300: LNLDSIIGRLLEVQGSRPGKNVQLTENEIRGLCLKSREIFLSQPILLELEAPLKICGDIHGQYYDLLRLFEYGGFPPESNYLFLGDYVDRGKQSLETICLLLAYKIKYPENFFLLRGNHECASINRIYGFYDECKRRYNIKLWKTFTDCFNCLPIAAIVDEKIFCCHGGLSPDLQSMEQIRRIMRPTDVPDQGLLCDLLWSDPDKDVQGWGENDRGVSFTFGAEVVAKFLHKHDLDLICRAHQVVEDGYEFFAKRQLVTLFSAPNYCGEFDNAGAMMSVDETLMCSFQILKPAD
UniProt P12579: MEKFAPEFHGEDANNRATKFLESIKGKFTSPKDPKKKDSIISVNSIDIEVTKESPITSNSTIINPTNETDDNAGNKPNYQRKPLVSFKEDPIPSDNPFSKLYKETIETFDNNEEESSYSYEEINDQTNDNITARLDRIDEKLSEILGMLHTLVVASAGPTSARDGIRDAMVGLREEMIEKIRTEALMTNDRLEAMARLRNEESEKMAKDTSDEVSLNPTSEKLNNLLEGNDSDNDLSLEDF
RSV P fragment P[1–126], cleaved from GST: residues 1-126 of P12579
UniProt A0A8C2LGY1: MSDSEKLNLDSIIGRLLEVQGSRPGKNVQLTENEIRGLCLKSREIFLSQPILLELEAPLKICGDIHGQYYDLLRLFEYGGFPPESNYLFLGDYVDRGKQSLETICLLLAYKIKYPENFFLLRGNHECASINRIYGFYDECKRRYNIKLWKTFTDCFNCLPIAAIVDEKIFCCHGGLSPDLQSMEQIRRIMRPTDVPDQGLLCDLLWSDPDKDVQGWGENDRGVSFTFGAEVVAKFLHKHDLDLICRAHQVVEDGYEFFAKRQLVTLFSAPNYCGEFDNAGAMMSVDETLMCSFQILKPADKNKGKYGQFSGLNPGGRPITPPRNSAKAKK

Legend:
[1] = molecular target: GST-PP1α (PP1A residues 7–300 fused to GST) (UniProt P62136); experiment: pull-down; GST-PP1 at 25 μM on glutathione-Sepharose beads, 3-fold molar excess of P WT or F87A, 3% BSA, 20 mM Tris/HCl pH 7.4, 150 mM NaCl, 1 h at 20°C; SDS-PAGE and Coomassie blue; both purified
[2] = molecular target: RSV P fragment P[1–126], cleaved from GST (human respiratory syncytial virus, strain Long) (UniProt P12579); experiment: NMR titration; 1H-15N BEST-TROSY of 25 μM 15N-labeled P[1–126] or full-length P, alone and with 2 molar equivalents of unlabeled GST-PP1α; 288 K; 20 mM sodium phosphate pH 6.8, 100 mM NaCl; both purified
[3] = molecular target: RSV phosphoprotein P, full-length recombinant, cleaved from GST (human respiratory syncytial virus, strain Long) (UniProt P12579); experiment: as above
[4] = molecular target: HA-P (RSV P with an N-terminal HA tag) (human respiratory syncytial virus, strain Long) (UniProt P12579); experiment: co-IP; BSRT7/5 cells transfected with pN and pHA-P or pHA-P[F87A]; anti-HA immunoprecipitation; blot for endogenous PP1

**Q.** With “RSV phosphoprotein P, full-length recombinant, cleaved from GST (from UniProt P12579 1-241)” as the substance, how does the binding [1] read?
**A.** Its binding is “binds”.

**Q.** Which binding [2] does the source give for “GST-PP1α (PP1A residues 7–300 fused to GST) (from UniProt P62136 7-300) (enzyme)” here?
**A.** The binding was “binds”.

**Q.** And the binding [3]?
**A.** The binding was “binds”.

**Q.** With “cellular protein phosphatase 1 (PP1), endogenous (from UniProt A0A8C2LGY1 1-330) (enzyme)” as the substance, how does the binding [4] read?
**A.** The binding was “binds”.
